We go through 59 compounds from PubChem BioAssay AID2685 (National Center for Advancing Translational Sciences (NCATS), 2010).

The nature of the assay: qHTS Assay for Lipid Storage Modulators in Drosophila S3 Cells.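 On cell number change: cells counted by Cell Tracker Red CMTPX staining in the red channel.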 Particulars: BODIPY lipid droplet fluorescence, 18-24 h; for cell number change: measured here: cell count max response, cells fed with added oleic acid. The gist of the method: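 Laser-scanning cytometry quantifies lipid droplet accumulation (500–530 nm total intensity; droplet/cell object ratio) in oleic acid-fed (400 uM added) Drosophila S3 cells treated with a concentration series. 20 uM Triacsin C defined 100% inhibition.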

[1] abbreviates: measured here: cell number channel AC50, cells fed with added oleic acid.
Setting [2] is: measured here: lipid fluorescence (Fed channel) AC50, cells fed with added oleic acid.

SMILES strings stand for the structures. Some of the results follow. Shown are side measurements of this screen, not its main read-out; they come without a call. Most of these compounds were active or inconclusive in the main read-out, so they are no random draw. Words in brackets tell the shape of the fitted curve; partial curves, single points and poor fits give uncertain potencies.

In the case of `O=C(CCNC(=O)c1ccccc1)NCC1CCCCC1`, the cell number change is -20.6%.
With `CCN(CCNC(=O)c1cccc(N2CCCC2=O)c1)c1ccccc1`, the cell number change amounted to 109%. For the same compound, under setting [1], the AC50 is 6.51 µM [rising, partial curve, poor fit]. In addition, the AC50 under setting [2] is 1.64 µM [rising, partial curve].
Consider `O=C(NN1C(=O)NC2(CCCCC2)C1=O)c1cc(F)cc(F)c1`, for which the cell number change was found to be 14.5%. The concentration at half-maximal activity (AC50) under setting [1] is 0.517 µM [falling, single point].
As for `CCOc1ccc(NC(=O)C2CC(=O)N(c3ccc4c(c3)OCCO4)C2)cc1OCC` (stereo unspecified), the cell number change is 37%. For the same compound, the AC50 under setting [1] is 2.59 µM [rising, partial curve, poor fit]. Also, under setting [2], the half-maximal activity concentration (AC50) was 2.91 µM [rising, full curve].
Turning to `CC1CN(C(=O)COC(=O)Cc2ccc(Cl)cc2)CC(C)O1` (stereo unspecified), the cell number change was determined as 0.778%. For the same compound, under setting [2], the AC50 was 7.31 µM [falling, partial curve, poor fit].
Consider `Cc1ccc(S(=O)(=O)N(CC(=O)Nc2cc(C)ccc2C)C(=O)N2CCN(C)CC2)cc1`, for which the cell number change was -13.7%.
Take `O=C1C2C3C=CC(CNS(=O)(=O)c4ccccc4[N+](=O)[O-])(O3)C2C(=O)N1c1ccccc1` (stereo unspecified): the cell number change was determined as 56.7%. The AC50 under setting [1] was 29.1 µM [rising, single point]. The AC50 under setting [2] is 29.1 µM [rising, single point].
Turning to `COc1ccccc1-c1nnc(SCC(=O)Nc2ccc(S(N)(=O)=O)cc2)n1C`, under setting [1], the AC50 is 0.82 µM [rising, single point].
On to `COCCN(CCOC)c1ncnc2c1cnn2-c1ccc(Cl)cc1`, for which the AC50 runs as follows: under setting [1], 6.51 µM [rising, single point]; under setting [2], 4.61 µM [rising, single point].
For the compound `COC(=O)c1c(C)oc(C)c1S(=O)(=O)NC(C)(C)C`, the cell number change was -8.24%. Further, the AC50 under setting [2] is 0.164 µM [falling, full curve, poor fit].
For the compound `COc1ccc(S(=O)(=O)NCc2ccccn2)cc1Cl`, the AC50 under setting [1] was 0.164 µM [falling, full curve, poor fit].
As for `Cc1cc(NC(=O)c2cc(-c3ccncc3)nc3c(C)cccc23)no1`, the cell number change was determined as 4.38%. In addition, the AC50 under setting [2] was 0.0231 µM [rising, full curve, poor fit].
With `COc1ccccc1OCC(=O)NC1CCSc2ccccc21` (stereo unspecified), the cell number change came out at 15.2%. Besides, the AC50 under setting [1] was 0.517 µM [falling, full curve]. Further, the AC50 under setting [2] was 25.9 µM [rising, partial curve].
Consider `OC(CNc1ncnc2sccc12)c1ccccc1` (stereo unspecified), for which the cell number change amounted to 18.9%. For the same compound, under setting [2], the AC50 is 29.1 µM [rising, single point].
As for `NC(=O)c1ccc(NC(=O)COC(=O)/C=C/c2cccs2)cc1`, the cell number change was 60.2%. Under setting [1], the AC50 was 0.0058 µM [falling, full curve, poor fit]. Further, the AC50 under setting [2] is 0.00517 µM [falling, full curve, poor fit].
With `COc1ccc(CCN(Cc2ccccn2)C(=S)Nc2ccc(C)cc2)cc1OC`, the AC50 was 0.0058 µM [rising, full curve, poor fit] under setting [1] and 0.0092 µM [rising, full curve, poor fit] under setting [2].
As for `COc1cc(NS(=O)(=O)c2ccc(NC(=O)CCC(=O)O)cc2)nc(OC)n1`, the cell number change was -9.01%. For the same compound, the AC50 under setting [1] is 0.651 µM [rising, single point]. Besides, under setting [2], the AC50 is 0.58 µM [rising, single point].
Consider `CCc1nnc(NC(=O)CCS(=O)(=O)Cc2ccccc2)s1`, for which the cell number change was determined as 2.56%.
With `Cc1cccc(C)c1Nc1nnc(SCc2nc3ccccc3c(=O)[nH]2)s1`, the cell number change is -9.24%. The AC50 under setting [2] was 29.1 µM [falling, single point].
`Cc1cccc2c(N=NC(=O)c3ccc(NS(=O)(=O)c4cccs4)cc3)c(O)[nH]c12`: the cell number change is -98.7%. Also, the AC50 under setting [1] was 18.4 µM [falling, partial curve]. The concentration at half-maximal activity (AC50) under setting [2] is 3.26 µM [falling, full curve].
As to `O=S(=O)(NCC(c1ccco1)N1CCN(c2ccc(F)cc2)CC1)c1ccc2c(c1)OCCO2` (stereo unspecified), the cell number change was -40.5%. Also, under setting [1], the AC50 is 29.1 µM [falling, single point]. Further, under setting [2], the half-maximal activity concentration (AC50) was 0.13 µM [falling, full curve].
Take `CCCC(=O)Nc1cc(OC)c(C(=O)OC)cc1Cl`: the cell number change is -8.92%. Further, under setting [2], the AC50 was 6.51 µM [rising, single point].
`O=C1CCCC2=C1C(c1ccccc1)NC(=S)N2` (stereo unspecified): the cell number change is -141%. Moreover, under setting [1], the AC50 is 29.1 µM [falling, single point]. Besides, the AC50 under setting [2] was 29.1 µM [falling, single point].
`COc1cc(C(=O)N/C(=C\c2cn(C)c3ccccc23)C(=O)N2CCOCC2)cc(OC)c1OC`: the cell number change was -55.2%. In addition, the half-maximal activity concentration (AC50) under setting [1] is 29.1 µM [falling, single point]. Besides, the AC50 under setting [2] is 29.1 µM [falling, single point].
In the case of `O=C(Nc1ccccc1N1CCOCC1)c1ccc2ccccc2c1`, the cell number change was 0.84%.
As to `CCCCNC(=O)CSc1ccc(S(=O)(=O)N2CCOCC2)cn1`, the cell number change came out at 14.3%. Besides, the AC50 under setting [2] is 0.517 µM [rising, single point].
As for `COc1ccc(-c2cc(=O)oc3cc(OCC(=O)c4cccc([N+](=O)[O-])c4)ccc23)cc1`, the cell number change came out at 8.04%. Also, the AC50 under setting [2] was 23.1 µM [rising, partial curve].
With `COC(=O)c1ccc(NC(=O)c2cc[n+](Cc3ccccc3)cc2)cc1`, the cell number change was 18.2%. For the same compound, the AC50 under setting [2] is 29.1 µM [rising, partial curve, poor fit].
For the compound `CCOC(=O)c1[nH]c2ccccc2c1NC(=O)c1nonc1C`, under setting [2], the AC50 was 6.51 µM [falling, single point].
For `COc1ccc(CC(=O)NCc2ccc3c(c2)cc(C)n3C)cc1`, the cell number change is 25.5%. Further, the AC50 under setting [2] is 25.9 µM [rising, partial curve].
Consider `Cc1ccc2c(c1)c1c(n2C)-c2[nH]ncc2CC1`, for which the cell number change is -45.7%. Also, under setting [1], the AC50 is 32.6 µM [falling, single point]. The AC50 under setting [2] is 29.1 µM [falling, single point].
With `CC(C)(C)OC(=O)NNc1c2ccccc2nc2ccccc12`, the cell number change was -15.9%. The AC50 under setting [2] is 6.51 µM [rising, single point].
Regarding `COC(=O)c1cc(Br)ccc1NC(=O)CCNC(=O)c1ccco1`, the cell number change was determined as 6.52%. Moreover, the half-maximal activity concentration (AC50) under setting [2] is 29.1 µM [rising, single point].
`N#CC1(NC(=O)COC(=O)Cn2[nH]c(=O)c3ccccc3c2=O)CCCCC1`: the cell number change turned out to be 9.32%. In addition, the AC50 under setting [2] was 16.4 µM [falling, single point].
As for `CN(c1ncnc(N)c1[N+](=O)[O-])C1CCCCC1`, the cell number change was -7.58%.
In the case of `COc1ccc(NC(C)=O)cc1S(=O)(=O)Nc1cccc(S(=O)(=O)NC2=NCCC2)c1`, the cell number change is -3.89%. The AC50 under setting [2] was 2.91 µM [rising, single point].
For `CCOc1ccc(C(C)NC(=O)c2ccccc2OCc2c(C)noc2C)cc1OCC` (stereo unspecified), the cell number change was 8.18%. Moreover, the AC50 under setting [2] is 18.4 µM [falling, single point].
`CC1CCN(CCCNC(=O)c2ccc3c(=O)n(Cc4ccc(Cl)cc4)c(=S)[nH]c3c2)CC1`: the cell number change is 13.7%. Besides, the AC50 under setting [1] was 2.06 µM [rising, partial curve].
In the case of `COc1ccc(NC(=O)c2cccc3c(Br)cccc23)cc1`, the cell number change turned out to be 1.04%.
Consider `O=C(CCc1ccccc1)Nc1ccc(F)c([N+](=O)[O-])c1`, for which the cell number change stood at 11.7%. The AC50 under setting [1] was 6.51 µM [falling, single point]. In addition, under setting [2], the AC50 is 6.51 µM [falling, single point].
In the case of `COc1ccc(NC(=O)CN2CCN(S(=O)(=O)c3ccc(F)cc3)CC2)cc1Cl`, the cell number change is 25%.
For the compound `N/C(=N\OC(=O)Cc1cccc2ccccc12)c1ccccn1`, the cell number change is 13.8%.
As for `Cc1cc(N2CCN(C)CC2)nc2ccc(NC(=O)CCC(=O)N3CCN(c4ccc([N+](=O)[O-])cc4)CC3)cc12`, the cell number change was -24.6%. In addition, the AC50 under setting [2] is 4.11 µM [rising, single point].
As to `O=C(CSc1nnc(-c2ccco2)o1)N1CCOCC1`, the cell number change was -11.6%. Moreover, the AC50 under setting [2] is 29.1 µM [falling, single point].
For `CC1Cc2ccccc2N1C(=O)CCNS(=O)(=O)c1ccc2c(c1)CCC(=O)N2` (stereo unspecified), the cell number change stood at 47.4%. The AC50 under setting [1] was 4.61 µM [rising, full curve]. For the same compound, under setting [2], the AC50 is 0.00517 µM [rising, full curve, poor fit].
In the case of `N#Cc1c(SCc2ccccc2)nc(N2CCOCC2)c2c1CCCC2`, the cell number change is -10.1%.
In the case of `CN(C)C1=NC(=O)/C(=C/c2ccc(-c3ccc(S(N)(=O)=O)cc3)o2)S1`, under setting [2], the AC50 was 0.58 µM [rising, single point].
On to `c1ccc(COc2ccc3nocc3c2)cc1`, for which the cell number change was 13.6%. Besides, under setting [2], the AC50 is 20.6 µM [rising, single point].
For `CC(C)(C)c1ccc(OCc2ccc(C(=O)N/N=C3\CC4CC=CC34)cc2)cc1` (stereo unspecified), the cell number change was -9.96%. Further, the half-maximal activity concentration (AC50) under setting [2] is 29.1 µM [falling, single point].
For the compound `CC1(C2CC2)NC(=O)N(CC(=O)Nc2ccc(C(F)(F)F)cc2)C1=O` (stereo unspecified), the cell number change was -21.1%. In addition, the AC50 under setting [2] was 4.11 µM [falling, full curve, poor fit].
Turning to `NNC(=O)CN1C(=O)Nc2ccc(Cl)cc2C1c1ccccc1` (stereo unspecified), the cell number change is -7.8%. Besides, the AC50 under setting [2] was 0.116 µM [falling, full curve, poor fit].
As to `CCN(CC)CC(=O)NC12CC3CC(CC(C3)C1)C2`, the cell number change is -61.6%. Moreover, the AC50 under setting [1] is 16.4 µM [falling, partial curve]. Besides, the AC50 under setting [2] was 29.1 µM [falling, single point].
As to `CCO/C=C1/C(=O)N(c2ccc(OC)cc2)C(=O)c2ccccc21`, the AC50 under setting [2] was 18.4 µM [falling, partial curve].
As for `COCCNc1nnc(Cc2ccccc2)c(=O)[nH]1`, the cell number change is -17.4%.
Take `COc1ccc(CC(=O)NC(C)CCc2ccccc2)cc1` (stereo unspecified): the cell number change is 20%. The AC50 under setting [1] was 0.0366 µM [rising, full curve, poor fit]. Besides, under setting [2], the AC50 is 0.00517 µM [rising, full curve, poor fit].
Regarding `O=C(CCNC(=O)c1ccccc1)NC1CCCc2ccccc21` (stereo unspecified), the cell number change was -13%.
As for `COc1ccccc1-c1cc(C(F)(F)F)nc(N2CCOCC2)n1`, the cell number change is -24.4%.
As to `CCCCC(=O)N(Cc1ccc(-c2ccccc2-c2nn[nH]n2)cc1)[C@H](C(=O)O)C(C)C`, the cell number change came out at 35.8%. Further, under setting [1], the AC50 is 29.1 µM [rising, single point].
For the compound `O=C(COC(=O)c1cc(Cl)ccc1O)Nc1ccc2c(c1)OCCO2`, the cell number change was -0.688%. The AC50 under setting [2] was 11.6 µM [rising, partial curve, poor fit].
